Measurements reported in PubChem BioAssay AID504784 (Drosophila RNAi Screening Center, 2011).

Test: 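Fly genes whose silencing alters how much lipid cells keep in droplets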 (primary screen)
System: Drosophila Kc167 embryonic cells
Reagent: long dsRNA against Drosophila genes, about 250 ng dsRNA per well
Duration: 4 days
Conditions: cells fed 400 µM oleic acid bound to BSA
Detection: 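Microscope images give a droplet-to-nucleus area ratio, taken as log and converted to a screen-wide B-score; higher values mean greater lipid storage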
Reading the numbers: droplet/nuclear area B-score: higher = more stored lipid (overstorage)
The screen tested about 17,000 reagents; below is a random part of those with a known target gene and a result. 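Each column is one replicate's B-score; the combined score over replicates was not deposited, so single values may mislead.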 A plus sign joins genes that one reagent is predicted to hit. Further read-outs or replicates are left out here.

| gene | DRSC id | droplet/nuclear area B-score, replicate 1 | droplet/nuclear area B-score, replicate 2 |
| --- | --- | --- | --- |
| CG9171 (GeneID 33807) | DRSC03152 | 0.0902 | 0.159 |
| CG9171 (GeneID 33807) | DRSC21813 | -0.0996 | -0.863 |
| D12 (GeneID 34172) | DRSC03311 | 0.0691 | -2.94 |
| CG17475 (GeneID 42069) | DRSC15238 | -1.9 | -1.55 |
| CG15213 (GeneID 50316) | DRSC10213 | 1.25 | 0.844 |
| CG18508 (GeneID 59253) | DRSC18155 | 0.287 | -1.3 |
| Lk6 (GeneID 44672) | DRSC12867 | -0.491 | -1.58 |
| Lk6 (GeneID 44672) | DRSC16728 | -0.203 | -5.58 |
| PAN2 (GeneID 35893) | DRSC07115 | 0.00861 | 0.019 |
| goe (GeneID 32660) | DRSC19345 | 0.679 | 0.569 |
| Eip63E (GeneID 38433) | DRSC08658 | 0.775 | 0.465 |
| TBPH (GeneID 37781) | DRSC04660 | 1.07 | 0.796 |
| CG3663 (GeneID 37944) | DRSC04402 | 0.445 | -0.148 |
| Duba (GeneID 39302) | DRSC10582 | 0.461 | -2.21 |
| CG14669 (GeneID 40652) | DRSC12255 | -1.75 | -0.967 |
| CG14440 (GeneID 31610) | DRSC17933 | -1.36 | -0.857 |
| CG14440 (GeneID 31610) | DRSC23008 | 0.0347 | 0.853 |
| CG14440 (GeneID 31610) | DRSC23009 | 0.316 | 0.492 |
| CG8745 (GeneID 39530) | DRSC11033 | 0.557 | 1.71 |
| CG8745 (GeneID 39530) | DRSC11034 | 0.33 | -0.437 |
| CG8745 (GeneID 39530) | DRSC22741 | 0.856 | -0.536 |
| UbcE2H (GeneID 31728) | DRSC18221 | 1.29 | 0.57 |
| Nulp1 (GeneID 38897) | DRSC09677 | -0.0443 | 1.36 |
| CG11858 (GeneID 43044) | DRSC14412 | -1.76 | -0.461 |
| Dgp-1 (GeneID 37080) | DRSC07400 | 0.0176 | -0.776 |
| CG18477 + CG31780 | DRSC01955 | -1.22 | -0.531 |
| CG2121 (GeneID 35814) | DRSC06819 | 1.12 | – |
| CG2121 (GeneID 35814) | DRSC06820 | -0.719 | 0.0393 |
| CG42820 + CG42819 | DRSC02264 | 1.22 | -0.957 |
| CG42820 + CG42819 | DRSC02265 | 0.791 | -1.61 |
| CG32700 (GeneID 31896) | DRSC17857 | 0.25 | 0.3 |
| CG32700 (GeneID 31896) | DRSC17858 | -0.014 | 0.148 |
| htk (GeneID 32877) | DRSC20029 | -0.831 | -1.01 |
| htk (GeneID 32877) | DRSC20031 | 0.895 | 0.657 |
| Cog1 (GeneID 41479) | DRSC15661 | 0.0296 | -0.704 |
| CG18180 (GeneID 39125) | DRSC10304 | -0.584 | -0.0925 |
| CG13760 (GeneID 31237) | DRSC18617 | -1.04 | 0.17 |
| Or67c (GeneID 39189) | DRSC11242 | 0.0465 | -0.842 |
| CG15198 (GeneID 32065) | DRSC19645 | 0.562 | 1.13 |
| soti (GeneID 41748) | DRSC16432 | -0.0788 | 0.879 |
| Cpr56F (GeneID 37299) | DRSC07326 | 0.894 | -0.00884 |
| CG16787 (GeneID 37811) | DRSC04282 | 0.103 | -0.0892 |
| CG4882 (GeneID 37787) | DRSC04495 | 1.84 | 3.63 |
| CG16890 (GeneID 34781) | DRSC01890 | 1.68 | -0.00873 |
| Srlp (GeneID 41533) | DRSC15890 | 2.02 | 5.77 |
| Vsx2 (GeneID 31469) | DRSC17397 | -0.878 | -0.797 |
| Vsx2 (GeneID 31469) | DRSC18087 | 0.602 | 0.102 |
| Vsx2 (GeneID 31469) | DRSC18088 | -0.522 | -0.946 |
| Vsx2 (GeneID 31469) | DRSC18089 | 0.868 | 0.837 |
| Vsx2 (GeneID 31469) | DRSC23089 | -0.674 | -0.99 |
| Vsx2 (GeneID 31469) | DRSC23273 | 2.15 | – |
| CG7058 (GeneID 32873) | DRSC20021 | -0.952 | 0.336 |
| CG3776 (GeneID 37996) | DRSC04417 | 2.58 | 0.716 |

The list goes on (5 carried over from the part before).
| gene | DRSC id | droplet/nuclear area B-score, replicate 1 | droplet/nuclear area B-score, replicate 2 |
| --- | --- | --- | --- |
| Vsx2 (GeneID 31469) | DRSC18089 | 0.868 | 0.837 |
| Vsx2 (GeneID 31469) | DRSC23089 | -0.674 | -0.99 |
| Vsx2 (GeneID 31469) | DRSC23273 | 2.15 | – |
| CG7058 (GeneID 32873) | DRSC20021 | -0.952 | 0.336 |
| CG3776 (GeneID 37996) | DRSC04417 | 2.58 | 0.716 |
| CG32280 (GeneID 317952) | DRSC08024 | -0.128 | -0.178 |
| CG7607 (GeneID 39263) | DRSC10889 | 0.0888 | -0.13 |
| CG10863 (GeneID 38463) | DRSC08145 | 2.53 | 1.3 |
| CG6425 (GeneID 43216) | DRSC16038 | 0.338 | – |
| Atg10 + CG12822 | DRSC06796 | 0.489 | 1.44 |
| crq (GeneID 33219) | DRSC00810 | 0.0302 | 0.0553 |
| Cam (GeneID 36329) | DRSC07353 | 0.268 | 0.753 |
| Cam (GeneID 36329) | DRSC07354 | 0.726 | 1.55 |
| Pabp2 (GeneID 35788) | DRSC07501 | 7.99 | 4.02 |
| CG13065 (GeneID 39786) | DRSC09948 | 0.335 | 2.12 |
| Ilp7 (GeneID 31328) | DRSC17895 | 1.44 | -1.17 |
| sunz (GeneID 40811) | DRSC12559 | 0.0778 | 0.163 |
| dgo (GeneID 36139) | DRSC06134 | 1.35 | 0.35 |
| Agpat1 (GeneID 32230) | DRSC19879 | 0.0659 | 0.115 |
| Agpat1 (GeneID 32230) | DRSC19880 | 0.154 | -0.673 |
| Akt (GeneID 41957) | DRSC14108 | 0.18 | -0.102 |
| CG15533 (GeneID 43612) | DRSC15069 | -0.118 | -1.21 |
| kek2 (GeneID 34582) | DRSC03552 | 2.47 | 1.54 |
| CG15563 (GeneID 43695) | DRSC15101 | 0.0599 | -0.088 |
| CG15537 (GeneID 43614) | DRSC15073 | 1.53 | -2.73 |
| Vps13 (GeneID 35693) | DRSC06817 | -0.18 | -0.721 |
| Uch (GeneID 33397) | DRSC00797 | 0.316 | 0.604 |
| HSPC300 (GeneID 246497) | DRSC22880 | 2.59 | 1.49 |
| prd1 (GeneID 41425) | DRSC15227 | -0.132 | -0.0884 |
| Moe (GeneID 31816) | DRSC18684 | 1.44 | 1.58 |
| Noc1 (GeneID 39240) | DRSC10921 | 2.01 | -1.43 |
| Cyp6a23 (GeneID 36661) | DRSC07383 | 2.13 | -0.313 |
| CG9304 (GeneID 37500) | DRSC04538 | -1.98 | 2.41 |
| CG15262 (GeneID 34901) | DRSC01975 | 0.236 | 2.15 |
| Ciao1 (GeneID 36655) | DRSC06170 | -0.016 | -1.05 |
| Roc1b + Cdc5 | DRSC08687 | -3.16 | -2.11 |
| ome (GeneID 44297) | DRSC09322 | -0.489 | -0.0419 |
| ome (GeneID 44297) | DRSC10282 | 3.07 | 1.88 |
| ome (GeneID 44297) | DRSC11380 | -0.713 | -0.407 |
| CG2063 (GeneID 35952) | DRSC06811 | 0.807 | -0.0504 |
| CG42372 + CG30100 | DRSC05602 | -0.595 | 0.203 |
| Sgp (GeneID 34188) | DRSC02195 | -1.31 | 0.0766 |
| dbr (GeneID 33161) | DRSC00274 | -0.0303 | -1.41 |
| Ote (GeneID 37090) | DRSC07498 | 0.0522 | 3.38 |
| CG7747 (GeneID 36820) | DRSC07038 | 0.242 | 0.415 |
| Vps33B (GeneID 43077) | DRSC15722 | 0.0635 | 3.3 |
| CG31100 (GeneID 41075) | DRSC14453 | -0.535 | 1.64 |
| CG31100 (GeneID 41075) | DRSC14455 | -0.135 | -0.913 |
| CG1503 (GeneID 33090) | DRSC20512 | -0.243 | 0.0534 |
| CG11560 (GeneID 39376) | DRSC09843 | -0.675 | 0.893 |
| CG16998 (GeneID 38847) | DRSC10235 | -2.15 | -0.188 |
| Mad1 (GeneID 35954) | DRSC07561 | -2.06 | 1.09 |
| CG31038 (GeneID 43535) | DRSC15051 | 0.22 | – |
| CG31038 (GeneID 43535) | DRSC16326 | 1.24 | -1.02 |
| CG31038 (GeneID 43535) | DRSC16327 | 0.152 | – |
| aly (GeneID 45960) | DRSC08707 | 1.21 | -0.0764 |
| aly (GeneID 45960) | DRSC21784 | -0.323 | 0.0171 |
